Data on 81 compounds can be found in the supplement of paper PMC7752906.

Counter-ions that a name gives are not always drawn. The list shows a part of the results. Repeats in this data set agree poorly, so a single value says little.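 About 40 Schistosoma mansoni schistosomula per well were imaged over time in bright field and compared with 0.1% DMSO wells. A drug counts as a hit if its Mahalanobis distance reaches 2.47 or more, three standard deviations above the DMSO control mean. Degeneracy is the fraction of worms scored opaque.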 Square brackets hold non-standard residues; d marks the D form. Peptide text beside a SMILES is read from it. pGlu = O=C1CC[C@@H](C(=O)O)N1; Thz = O=C(O)[C@@H]1CSCN1

This test has as its system Schistosoma mansoni schistosomula. Kind of test: degeneracy (percent of somules classified as degenerate/opaque); higher = more parasite degeneration/death; extreme values may be limits of the assay. The following applies: 10 µM; 72 h.
On to `CCN(CCCCOC(=O)c1ccc(OC)c(OC)c1)C(C)Cc1ccc(OC)cc1` (stereo unspecified) [Mebeverine], for which the degeneracy was 9.09%.

In turn, `CCN(CC)CCOCCOC(=O)C1(c2ccccc2)CCCC1` [Carbetapentane Citrate] displayed a degeneracy of 7.41%.

`C[C@@H]1C[C@H]2[C@@H]3CCC4=CC(=O)C=C[C@]4(C)[C@@]3(F)[C@@H](O)C[C@]2(C)[C@H]1C(=O)CO` [Desoximetasone] registered a degeneracy of 3.03%.

`CC#CCn1c(N2CCC[C@@H](N)C2)nc2c1c(=O)n(Cc1nc(C)c3ccccc3n1)c(=O)n2C` [Linagliptin] yielded a degeneracy of 2.63%.

With `NC[C@H](O)c1ccc(O)c(O)c1` [Norepinephrine], the degeneracy is 0%.

In turn, `CCCCCCOc1ccccc1C(N)=O` [Exalamide] registered a degeneracy of 100%.

In turn, `O=C(O)C1=C(CSc2nnnn2CS(=O)(=O)O)CS[C@@H]2[C@H](NC(=O)[C@H](O)c3ccccc3)C(=O)N12` [Cefonicid Sodium] came in with a degeneracy of 0%.

`CNCC(O)c1ccc(O)c(O)c1` (stereo unspecified) [Racepinephrine] came in with a degeneracy of 2.63%.

Compound `Nc1ccc(S(=O)(=O)Nc2nccs2)cc1` [Sulfathiazole] had a degeneracy of 28.6%.

Compound `Cc1ccc(-c2cc(C(F)(F)F)nn2-c2ccc(S(N)(=O)=O)cc2)cc1` [Celecoxib] had a degeneracy of 28%.

With `COC(=O)[C@H](Cc1ccccc1)NC(=O)[C@@H](N)CC(=O)O` [Aspartame] (H-Asp-Phe-OMe), the degeneracy is 8.33%.

As for `COc1cc(CNC(=O)CCCC/C=C/C(C)C)ccc1O` [Capsaicin], the degeneracy stood at 6.52%.

On to `O=C(NCCCN1CCOCC1)c1ccc(Cl)cc1` [Eprobemide], for which the degeneracy worked out at 3.7%.

As to `C[C@]12CC[C@@H]3c4ccc(O)cc4C[C@@H](CCCCCCCCC[S+]([O-])CCCC(F)(F)C(F)(F)F)[C@H]3[C@@H]1CC[C@@H]2O` (stereo partly specified) [Fulvestrant], the degeneracy turned out to be 11.1%.

Compound `CO/N=C(\C(=O)N[C@@H]1C(=O)N2C(C(=O)O)=C(COC(C)=O)CS[C@H]12)c1csc(N)n1` [Cefotaxime] gave a degeneracy of 8.89%.

Turning to `CO/N=C(\C(=O)N[C@@H]1C(=O)N2C(C(=O)O)=C(COC(C)=O)CS[C@H]12)c1csc(N)n1` [Cefotaxime Sodium], the degeneracy came out at 3.45%.

Turning to `CC(=O)Nc1c(I)cc(I)c(C(=O)O)c1I` [Acetriazoic Acid], the degeneracy turned out to be 4.88%.

On to `Cc1cc2cc3c(C)cc(=O)oc3c(C)c2o1` [Trioxsalen], for which the degeneracy turned out to be 11.8%.

`CC(=O)Nc1nnc(S(N)(=O)=O)s1` [Acetazolamide] returned a degeneracy of 0%.

In turn, `CC(C)Oc1ccc2c(=O)c(-c3ccccc3)coc2c1` [Ipriflavone] had a degeneracy of 11.8%.

The compound `Clc1ccc2nsnc2c1NC1=NCCN1` [Tizanidine Hydrochloride] showed a degeneracy of 13.3%.

Compound `O=C(CCCl)NCCc1ccccc1` [Fenaclon] displayed a degeneracy of 5.77%.

`Nc1ncnc2c1ncn2[C@@H]1O[C@H](CO)[C@@H](O)[C@@H]1O` [Vidarabine] came in with a degeneracy of 30%.

`C[C@H]1C[C@H]2[C@@H]3CCC4=CC(=O)C=C[C@]4(C)[C@@]3(F)[C@@H](O)C[C@]2(C)[C@@]1(O)C(=O)COP(=O)(O)O` [Betamethasone Sodium Phosphate] returned a degeneracy of 2.44%.

On to `CC[C@H](C)[C@H](N)C(=O)O` [Isoleucine (l)], for which the degeneracy amounted to 8.11%.

Consider `CCOc1nc2cccc(C(=O)O)c2n1Cc1ccc(-c2ccccc2-c2nnn[nH]2)cc1` [Candesartan], for which the degeneracy turned out to be 0%.

Consider `O=C1CC[C@@H](C(=O)N2CSC[C@H]2C(=O)O)N1` [Pidotimod] ([pGlu]-[Thz]-OH), for which the degeneracy came out at 6.67%.

The compound `Oc1c(Cl)cc(Cl)c2cccnc12` [chloroxine] registered a degeneracy of 100%.

Compound `c1ccc(-c2ccc(C(c3ccccc3)n3ccnc3)cc2)cc1` (stereo unspecified) [Bifonazole] yielded a degeneracy of 22.5%.

The compound `CC(=O)N(CC(O)CO)c1c(I)c(C(=O)NCCO)c(I)c(C(=O)NCC(O)CO)c1I` (stereo unspecified) [Ioxilan] showed a degeneracy of 2.94%.

With `COC(=O)Nc1nc2cc(Sc3ccccc3)ccc2[nH]1` [Fenbendazole], the degeneracy was 100%.

Compound `CC(=O)N(CC(O)CO)c1c(I)c(C(=O)NCC(O)CO)c(I)c(C(=O)NCC(O)CO)c1I` (stereo unspecified) [Iohexol] registered a degeneracy of 3.03%.

In turn, `Clc1cccc(Cl)c1NC1=NCCN1` [Clonidine] showed a degeneracy of 4.55%.

Turning to `CO[C@H]1/C=C/O[C@@]2(C)Oc3c(C)c(O)c4c(O)c(c5c(nc6cc(C)ccn65)c4c3C2=O)NC(=O)/C(C)=C\C=C\[C@H](C)[C@H](O)[C@@H](C)[C@@H](O)[C@@H](C)[C@H](OC(C)=O)[C@@H]1C` [Rifaximin], the degeneracy was found to be 3.7%.

Regarding `CCCNC(=O)NS(=O)(=O)c1ccc(Cl)cc1` [Chlorpropamide], the degeneracy was 5.13%.

Regarding `CC(=O)O[C@]1(C(C)=O)CC[C@H]2[C@@H]3C=C(Cl)C4=CC(=O)CC[C@]4(C)[C@H]3CC[C@@]21C` [Chlormadinone Acetate], the degeneracy came to 5.56%.

Take `CN(C)C(=N)NC(=N)N` [metformin]: the degeneracy was found to be 3.03%.

As for `CNCCc1ccccn1` [Betahistine], the degeneracy amounted to 10.5%.

Compound `CC=CC(=O)N(CC)c1ccccc1C` [Crotamiton] showed a degeneracy of 3.03%.

With `CCCCCCCCCCCCCCCC(=O)OC[C@H](O)[C@H]1OC(=O)C(O)=C1O` [Ascorbyl Palmitate], the degeneracy stood at 46.7%.

Turning to `O=C(c1ccc(F)cc1)C1CCN(CCn2c(=O)[nH]c3ccccc3c2=O)CC1` [Ketanserin Tartrate], the degeneracy was found to be 4.17%.

The compound `C[C@H](C(=O)O)c1cccc(C(=O)c2ccccc2)c1` [Dexketoprofen] showed a degeneracy of 2.63%.

As for `CCN(CC)C(=O)c1ccc(O)c(OC)c1` [Ethamivan], the degeneracy turned out to be 3.45%.

On to `CC(=O)[C@@]1(O)CC[C@H]2[C@@H]3CCC4=CC(=O)CC[C@]4(C)[C@H]3CC[C@@]21C` [Hydroxyprogesterone], for which the degeneracy was found to be 16%.

For `CN(C)CCOC(c1ccccc1)c1ccccc1.Cn1c(=O)c2[nH]c(Cl)nc2n(C)c1=O` [Dimenhydrinate], the degeneracy came out at 11.1%.

On to `O=C1NCC2(CCN(CCc3ccccc3)CC2)O1` [Fenspiride Hydrochloride], for which the degeneracy was found to be 10%.

On to `Cc1cc2nc3c(=O)[nH]c(=O)nc-3n(C[C@H](O)[C@H](O)[C@H](O)CO)c2cc1C` [riboflavin], for which the degeneracy was found to be 0%.

Take `CCCNC(C)(C)COC(=O)c1ccccc1` [Meprylcaine Hydrochloride]: the degeneracy was 13.6%.

The compound `CCC1(C)CC(=O)NC1=O` (stereo unspecified) [Ethosuximide] gave a degeneracy of 5.56%.

With `CC(=O)Nc1ccc(OC(C)=O)cc1` [Diacetamate], the degeneracy was found to be 6.06%.

The compound `CCc1nn(CCCN2CCN(c3cccc(Cl)c3)CC2)c(=O)n1CCOc1ccccc1` [Nefazodone] showed a degeneracy of 25.7%.

On to `O=S(=O)(c1cccc2cnccc12)N1CCCNCC1` [Fasudil Hydrochloride], for which the degeneracy stood at 3.45%.

Consider `CCC(C)(C)C(=O)O[C@H]1C[C@@H](C)C=C2C=C[C@H](C)[C@H](CC[C@@H]3C[C@@H](O)CC(=O)O3)[C@H]21` [Simvastatin], for which the degeneracy stood at 100%.

`C[C@@H]1CN(c2c(F)c(F)c3c(=O)c(C(=O)O)cn(C4CC4)c3c2F)C[C@H](C)N1` [Orbifloxacin] gave a degeneracy of 9.09%.

Compound `O=[N+]([O-])c1ccc(O)c2ncccc12` [Nitroxoline] displayed a degeneracy of 100%.

Turning to `CC(O)(CC(=O)O)CC(=O)O` [Meglutol], the degeneracy came out at 9.68%.

`NNC(=O)c1ccncc1.Nc1ccc(C(=O)O)c(O)c1` [Pasiniazid] came in with a degeneracy of 0%.

The compound `O=C(O)c1ccccc1Nc1cccc(C(F)(F)F)c1` [Flufenamic Acid] displayed a degeneracy of 100%.

Turning to `CC(=O)Nc1ccc(S(=O)(=O)c2ccc(NC(C)=O)cc2)cc1` [Acedapsone], the degeneracy was 7.69%.

In turn, `O=C1O[C@H]([C@@H](O)CO)C(O)=C1O` [Ascorbic Acid] displayed a degeneracy of 0%.

In turn, `Clc1ccc(C(c2ccccc2Cl)C(Cl)Cl)cc1` (stereo unspecified) [Mitotane] came in with a degeneracy of 100%.

Regarding `CCCCN1CCCC[C@H]1C(=O)Nc1c(C)cccc1C` [Levobupivacaine], the degeneracy came to 7.89%.

`Nc1ccc(C(=O)O)c(O)c1` [Aminosalicylic Acid] showed a degeneracy of 4.17%.

On to `Nc1nc(/C(=C/CC(=O)O)C(=O)N[C@@H]2C(=O)N3C(C(=O)O)=CCS[C@H]23)cs1` [Ceftibuten], for which the degeneracy came to 9.09%.

`CN(C)CCOC(=O)C(c1ccccc1)C1(O)CCCC1` (stereo unspecified) [Cyclopentolate Hydrochloride] yielded a degeneracy of 12%.

For `CCN(CC)CCNC(=O)c1cc(Br)c(N)cc1OC` [Bromopride], the degeneracy is 3.12%.

`OC(CCN1CCCCC1)(c1ccccc1)c1ccccc1` [Pridinol] displayed a degeneracy of 26.1%.

Consider `CCCCC(=O)N(Cc1ccc(-c2ccccc2-c2nnn[nH]2)cc1)[C@H](C(=O)O)C(C)C` [Valsartan], for which the degeneracy was 5.88%.

For `O=C(O)CCC(=O)c1ccc(-c2ccccc2)cc1` [Fenbufen], the degeneracy was 5.13%.

In turn, `N[C@@H](Cc1ccc(O)c(O)c1)C(=O)O` [Levodopa] displayed a degeneracy of 4.88%.

In the case of `CN1CCN2c3ccccc3Cc3ccccc3C2C1` (stereo unspecified) [Mianserin], the degeneracy is 100%.

On to `C[C@H](CCC(=O)O)[C@H]1CC[C@H]2[C@@H]3C(=O)C[C@@H]4CC(=O)CC[C@]4(C)[C@H]3CC(=O)[C@]12C` [Dehydrocholic Acid], for which the degeneracy worked out at 7.89%.

As to `O=C1c2c(O)ccc(O)c2C(=O)c2c(NCCNCCO)ccc(NCCNCCO)c21` [Mitoxantrone], the degeneracy came out at 75%.

The compound `O=C(NC(Cc1cc(=O)[nH]c2ccccc12)C(=O)O)c1ccc(Cl)cc1` (stereo unspecified) [Rebamipide] displayed a degeneracy of 2.63%.

Compound `OC[C@H]1O[C@@H](O[C@H]2[C@H](O)[C@@H](O)C(O)O[C@@H]2CO)[C@H](O)[C@@H](O)[C@H]1O` (stereo partly specified) [Lactose Monohydrate] had a degeneracy of 12.5%.

On to `CC(C)(C)NC[C@H](O)COc1cccc2c1CCCC2=O` [Levobunolol], for which the degeneracy worked out at 6.67%.

`CC(C)(C)NC[C@H](O)COc1cccc2c1CCCC2=O` [Levobunolol Hydrochloride] yielded a degeneracy of 5.71%.

In turn, `C[N+](C)(C)CCOC(N)=O` [Carbachol] registered a degeneracy of 0%.

For `CC1(C)O[C@@H]2C[C@H]3[C@@H]4C[C@H](F)C5=CC(=O)CC[C@]5(C)[C@H]4[C@@H](O)C[C@]3(C)[C@]2(C(=O)CO)O1` [Flurandrenolide], the degeneracy was 2.33%.

As for `CCN1CCCC1CNC(=O)c1cc(S(N)(=O)=O)ccc1OC` (stereo unspecified) [Sulpiride], the degeneracy turned out to be 3.7%.

With `O=C(O)c1cccnc1` [Niacin], the degeneracy was 11.9%.
